Source: patent publication US8114840B2, “Medicament containing activated antithrombin III” (Hamburger Stiftung zur Forderung Von Wissenschaft und Kultur, priority 2000, dated 2012)
At least one structure is not confirmed: it was looked up by name or label, or the drawing left a doubt.

Tested on: thrombocytes
Experiment: Adhesion of thrombocytes to adhesion proteins (microtitre plate, hexosaminidase)
Format: cell-based
Settings: EDTA 5 mM; integrins 5 μg/ml; Wortmannin 20 nM; LY294002 50 μm; clone 37 with Fc receptor blocked by IV.3
Protocol: The adhesion of thrombocytes was carried out according to Santoro et al, 1994. […] Non-adhering thrombocytes were thoroughly washed out. The number of adhering platelets was determined by lysing the platelets with Triton X-100 and determining the lysosomal enzyme hexosaminidase. In order to calibrate the adhesion assay a calibration series containing a known and increasing number of platelets was added to the microtitre plate and the absorbance of the reacted substrate p-nitrophenyl-N-acetyl-β-glucosaminide was determined in relation to the number of platelets.

Structure (SMILES) | inhibition of IDAAT-mediated adhesion of thrombocytes to thrombospondin (immobilized TSP-1)
COC[C@H]1OC(=O)c2coc3c2[C@@]1(C)C1=C(C3=O)[C@@H]2CCC(=O)[C@@]2(C)C[C@H]1OC(C)=O [Wortmannin] | completely inhibited
O=c1cc(N2CCOCC2)oc2c(-c3ccccc3)cccc12 [LY294002] | completely inhibited
